According to patent US20080293700A1, “Compositions and Methods Relating to Novel Compounds and Targets Thereof” (priority 2004, published 2008):
The name of at least one read-out is uncertain.

Sequences of proteins named here, by UniProt entry; tags and fusion partners are left off. A change or cut given only in a name is not applied to a line headed by its entry.
UniProt P13621: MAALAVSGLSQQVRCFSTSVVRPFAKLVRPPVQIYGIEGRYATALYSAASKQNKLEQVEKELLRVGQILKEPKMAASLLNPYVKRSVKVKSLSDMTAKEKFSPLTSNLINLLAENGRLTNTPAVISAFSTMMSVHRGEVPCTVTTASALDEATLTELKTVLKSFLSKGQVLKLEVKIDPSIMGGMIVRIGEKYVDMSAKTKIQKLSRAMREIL

Target: T1, ATP hydrolytic activity of sub-mitochondrial particles (SMPs), mitochondrial F1Fo-ATPase (Bos taurus, UniProt P13621)
T1 construct: from tissue; host or cells: sub-mitochondrial particles (SMPs)
Experiment: NADH-coupled kinetics assay of ATP hydrolysis by sub-mitochondrial particles
Type: biochemical, bovine
Settings: secondary plot [Bz] versus Vmax/Km, [Bz] 1-8 μM
Protocol: The mechanism of inhibition for ATP hydrolysis induced by Bz-423 and derivatives of Bz-423 was assayed using an NADH-coupled assay. The ATP hydrolytic activity of the sub-mitochondrial particles (hereinafter SMPs) was measured by coupling the production of ADP to the oxidation of NADH via the pyruvate kinase and lactate dehydrogenase reaction. Briefly, ATP hydrolysis SMPs (0.8 mg; 7.14 μg/well) were added to hydrolysis buffer (100 mM Tris-HCl, pH 8.0 at 25° C., 4 mM MgCl2, […], 0.2 mM EDTA) and vortexed. 125 μL of this suspension was added to each well of a 96-well plate containing 50× drug or DMSO vehicle control (1% DMSO, final). The 96-well plate was then placed at 30° C. in a Molecular Devices Versamax tunable microplate reader and allowed to incubate for 5 min. During this 5 min, a substrate-coupling mixture was prepared (containing X mM ATP, 0.2 mM NADH, 1 mM phosphoenolpyruvate (PEP), 2 U/mL pyruvate kinase (PK), and 2 U/mL lactate dehydrogenase (LDH) in hydrolysis buffer). The rate of hydrolysis was assayed over a range of ATP concentrations (0.1-4.0 mM) at each [Bz]. 125 μL of the substrate-coupling mixture was added to each well, and the rate of NADH oxidation was monitored for 10 min at 340 nm, 30° C. The measured decrease in absorbance over time (in OD/min) was converted to μmol ATP hydrolyzed/min/mg SMP (ε=6220). […]

Structure (SMILES): CN1C(=O)C(Cc2ccc(OC(C)(C)C)cc2)N=C(c2ccc(O)cc2)c2cc(Cl)ccc21 (stereo not shown) [o-tert-Butyl]
- effect on Vmax/Km: remained unchanged
